# In the supplement of paper PMC6411743:
# ± gives the standard deviation of the averaged measurements. The list shows a part of the results.
# Tests used:
# Experiment in all cases: NP40-soluble protein abundance relative to vehicle (solubility fold change) (ratio); higher = more soluble protein in presence of GTP
# [1] = target: T1, A0A087WXR2|F5GWK5 and related entries (UniProt Q9Y365)
# T1 sequence (whole entry): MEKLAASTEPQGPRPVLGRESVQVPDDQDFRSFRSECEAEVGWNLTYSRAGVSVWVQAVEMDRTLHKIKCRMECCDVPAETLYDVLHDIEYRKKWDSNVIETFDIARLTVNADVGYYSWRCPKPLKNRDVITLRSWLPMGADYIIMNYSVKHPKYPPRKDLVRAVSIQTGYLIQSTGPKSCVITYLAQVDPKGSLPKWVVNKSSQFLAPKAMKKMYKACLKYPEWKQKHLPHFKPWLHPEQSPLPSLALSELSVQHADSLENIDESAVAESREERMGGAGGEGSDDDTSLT
# Outline: (§1)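 Values are fold changes against the detergent-processed vehicle, based on vsn-normalised intensities. Jurkat crude lysate was treated at eight concentrations from 0.1 to 10 mM (10 min at room temperature, then 3 min at 37 °C), solubilised with 0.8% NP40 and benzonase, ultracentrifuged and analysed by TMT-labelled LC-MS/MS over three independent experiments.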
# [2] = target: T2, A0A087WZD8|C9JNH7 and related entries (UniProt Q8WUA4)
# T2 sequence (whole entry): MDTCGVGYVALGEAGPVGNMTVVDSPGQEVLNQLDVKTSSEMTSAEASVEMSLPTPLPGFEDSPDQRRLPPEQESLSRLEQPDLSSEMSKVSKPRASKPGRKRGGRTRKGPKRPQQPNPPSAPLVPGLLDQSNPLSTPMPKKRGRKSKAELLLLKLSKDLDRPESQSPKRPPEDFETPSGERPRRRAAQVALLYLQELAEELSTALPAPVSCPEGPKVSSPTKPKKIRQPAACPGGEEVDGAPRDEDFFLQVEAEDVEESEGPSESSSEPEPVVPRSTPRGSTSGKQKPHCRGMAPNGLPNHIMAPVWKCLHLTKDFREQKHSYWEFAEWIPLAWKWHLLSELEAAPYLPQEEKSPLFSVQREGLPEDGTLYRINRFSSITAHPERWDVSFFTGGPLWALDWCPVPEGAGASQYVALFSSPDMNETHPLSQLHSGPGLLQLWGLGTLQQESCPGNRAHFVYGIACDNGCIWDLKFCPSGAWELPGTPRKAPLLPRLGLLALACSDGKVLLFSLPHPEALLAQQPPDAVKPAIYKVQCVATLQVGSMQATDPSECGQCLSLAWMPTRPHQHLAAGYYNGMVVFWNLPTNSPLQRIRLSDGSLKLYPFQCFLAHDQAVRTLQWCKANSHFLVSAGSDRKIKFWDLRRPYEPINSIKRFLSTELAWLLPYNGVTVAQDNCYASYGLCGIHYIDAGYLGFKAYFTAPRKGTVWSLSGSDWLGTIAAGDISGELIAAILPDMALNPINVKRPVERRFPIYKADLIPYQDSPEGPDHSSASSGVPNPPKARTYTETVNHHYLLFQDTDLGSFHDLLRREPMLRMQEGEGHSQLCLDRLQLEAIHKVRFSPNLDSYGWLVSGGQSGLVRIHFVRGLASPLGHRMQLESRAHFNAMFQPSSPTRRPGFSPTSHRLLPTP
# Outline: as §1
# [3] = target: T3, A0A087X060|G3V2W9 and related entries (UniProt Q56P03)
# T3 sequence (whole entry): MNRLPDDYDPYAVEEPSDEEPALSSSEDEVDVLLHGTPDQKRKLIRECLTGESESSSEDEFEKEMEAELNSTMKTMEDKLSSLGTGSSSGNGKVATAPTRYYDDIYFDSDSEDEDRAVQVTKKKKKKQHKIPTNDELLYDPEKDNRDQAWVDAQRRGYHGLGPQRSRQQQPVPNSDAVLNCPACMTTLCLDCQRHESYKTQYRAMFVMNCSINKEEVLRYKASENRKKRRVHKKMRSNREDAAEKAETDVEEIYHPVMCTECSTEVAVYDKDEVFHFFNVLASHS
# Outline: as §1
# [4] = target: T4, A0A087X0R6|Q9UMY4 and related entries (UniProt Q9UMY4)
# T4 sequence (whole entry): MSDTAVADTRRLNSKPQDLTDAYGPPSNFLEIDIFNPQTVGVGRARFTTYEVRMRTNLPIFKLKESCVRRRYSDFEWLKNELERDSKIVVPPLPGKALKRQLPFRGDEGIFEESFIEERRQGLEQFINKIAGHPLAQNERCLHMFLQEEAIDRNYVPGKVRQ
# Outline: as §1
# [5] = target: T5, A0A087X142|A6NFQ9 and related entries (UniProt Q92599)
# T5 sequence (whole entry): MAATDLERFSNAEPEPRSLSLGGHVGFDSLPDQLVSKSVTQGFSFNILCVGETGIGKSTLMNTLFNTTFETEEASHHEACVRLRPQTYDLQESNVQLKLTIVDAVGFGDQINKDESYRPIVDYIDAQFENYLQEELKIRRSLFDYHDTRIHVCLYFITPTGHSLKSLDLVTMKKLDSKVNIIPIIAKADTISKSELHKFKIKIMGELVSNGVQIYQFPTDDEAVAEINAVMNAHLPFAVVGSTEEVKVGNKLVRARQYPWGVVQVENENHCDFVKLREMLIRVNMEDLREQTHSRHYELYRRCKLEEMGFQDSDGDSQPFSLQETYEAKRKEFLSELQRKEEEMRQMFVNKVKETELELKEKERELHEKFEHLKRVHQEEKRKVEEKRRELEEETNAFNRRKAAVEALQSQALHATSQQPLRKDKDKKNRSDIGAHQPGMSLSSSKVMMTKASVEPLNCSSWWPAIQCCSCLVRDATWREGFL
# Outline: as §1
# [6] = target: T6, A0A0A0MRL7|P55210 and related entries (UniProt P55210)
# T6 sequence (whole entry): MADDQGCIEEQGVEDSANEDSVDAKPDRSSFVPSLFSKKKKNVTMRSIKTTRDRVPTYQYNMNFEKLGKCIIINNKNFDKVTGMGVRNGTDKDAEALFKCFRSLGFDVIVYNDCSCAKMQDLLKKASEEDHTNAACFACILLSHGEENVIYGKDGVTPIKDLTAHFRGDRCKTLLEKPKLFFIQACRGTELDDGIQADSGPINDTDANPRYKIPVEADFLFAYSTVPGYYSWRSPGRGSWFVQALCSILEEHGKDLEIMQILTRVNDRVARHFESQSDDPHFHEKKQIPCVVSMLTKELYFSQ
# Outline: as §1
# [7] = target: T7, A0A0A0MSG2|J3KNW4 and related entries (UniProt Q14192)
# T7 sequence (whole entry): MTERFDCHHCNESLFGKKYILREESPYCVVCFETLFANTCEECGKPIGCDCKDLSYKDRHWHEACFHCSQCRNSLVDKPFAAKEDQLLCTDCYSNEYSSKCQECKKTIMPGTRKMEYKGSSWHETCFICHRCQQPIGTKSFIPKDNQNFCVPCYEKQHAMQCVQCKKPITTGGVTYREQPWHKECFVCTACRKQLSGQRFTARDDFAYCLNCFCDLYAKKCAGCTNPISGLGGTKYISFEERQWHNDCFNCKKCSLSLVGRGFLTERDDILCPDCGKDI
# Outline: as §1
structure (smiles),measurement,setting,value
Nc1nc2c(ncn2[C@@H]2O[C@H](COP(=O)(O)OP(=O)(O)OP(=O)(O)O)[C@@H](O)[C@H]2O)c(=O)[nH]1 [guanosine triphosphate],NP40-soluble protein abundance,[1]; concentration: 0.1mM,0.9676 ± 0.0069
same,NP40-soluble protein abundance,[1]; concentration: 0.5mM,1.05 ± 0.015
same,NP40-soluble protein abundance,[1]; concentration: 1mM,1.09 ± 0.026
same,NP40-soluble protein abundance,[1]; concentration: 2mM,0.953 ± 0.093
same,NP40-soluble protein abundance,[1]; concentration: 4mM,0.996 ± 0.013
same,NP40-soluble protein abundance,[1]; concentration: 6mM,0.9467 ± 0.0086
same,NP40-soluble protein abundance,[1]; concentration: 8mM,1.12 ± 0.12
same,NP40-soluble protein abundance,[1]; concentration: 10mM,1.03 ± 0.043
same,NP40-soluble protein abundance,[2]; concentration: 0.1mM,1.06 ± 0.037
same,NP40-soluble protein abundance,[2]; concentration: 0.5mM,1.06 ± 0.059
same,NP40-soluble protein abundance,[2]; concentration: 1mM,1.06 ± 0.039
same,NP40-soluble protein abundance,[2]; concentration: 2mM,1.07 ± 0.075
same,NP40-soluble protein abundance,[2]; concentration: 4mM,1.11 ± 0.062
same,NP40-soluble protein abundance,[2]; concentration: 6mM,1.12 ± 0.037
same,NP40-soluble protein abundance,[2]; concentration: 8mM,1.096 ± 0.0052
same,NP40-soluble protein abundance,[2]; concentration: 10mM,1.11 ± 0.061
same,NP40-soluble protein abundance,[3]; concentration: 0.1mM,0.949 ± 0.11
same,NP40-soluble protein abundance,[3]; concentration: 0.5mM,0.984 ± 0.08
same,NP40-soluble protein abundance,[3]; concentration: 1mM,1.07 ± 0.027
same,NP40-soluble protein abundance,[3]; concentration: 2mM,1.08 ± 0.088
same,NP40-soluble protein abundance,[3]; concentration: 4mM,1.15 ± 0.15
same,NP40-soluble protein abundance,[3]; concentration: 6mM,1.14 ± 0.053
same,NP40-soluble protein abundance,[3]; concentration: 8mM,1.16 ± 0.18
same,NP40-soluble protein abundance,[3]; concentration: 10mM,1.13 ± 0.19
same,NP40-soluble protein abundance,[4]; concentration: 0.1mM,0.871 ± 0.063
same,NP40-soluble protein abundance,[4]; concentration: 0.5mM,0.8387 ± 0.0023
same,NP40-soluble protein abundance,[4]; concentration: 1mM,0.965 ± 0.035
same,NP40-soluble protein abundance,[4]; concentration: 2mM,0.94 ± 0.03
same,NP40-soluble protein abundance,[4]; concentration: 4mM,0.921 ± 0.057
same,NP40-soluble protein abundance,[4]; concentration: 6mM,0.884 ± 0.06
same,NP40-soluble protein abundance,[4]; concentration: 8mM,0.846 ± 0.08
same,NP40-soluble protein abundance,[4]; concentration: 10mM,0.929 ± 0.055
same,NP40-soluble protein abundance,[5]; concentration: 0.1mM,1.02 ± 0.087
same,NP40-soluble protein abundance,[5]; concentration: 0.5mM,1.02 ± 0.14
same,NP40-soluble protein abundance,[5]; concentration: 1mM,0.953 ± 0.17
same,NP40-soluble protein abundance,[5]; concentration: 2mM,1.02 ± 0.12
same,NP40-soluble protein abundance,[5]; concentration: 4mM,0.985 ± 0.12
same,NP40-soluble protein abundance,[5]; concentration: 6mM,0.975 ± 0.065
same,NP40-soluble protein abundance,[5]; concentration: 8mM,1.01 ± 0.17
same,NP40-soluble protein abundance,[5]; concentration: 10mM,0.943 ± 0.039
same,NP40-soluble protein abundance,[6]; concentration: 0.1mM,0.999 ± 0.086
same,NP40-soluble protein abundance,[6]; concentration: 0.5mM,1 ± 0.072
same,NP40-soluble protein abundance,[6]; concentration: 1mM,0.92 ± 0.083
same,NP40-soluble protein abundance,[6]; concentration: 2mM,0.915 ± 0.084
same,NP40-soluble protein abundance,[6]; concentration: 4mM,0.872 ± 0.093
same,NP40-soluble protein abundance,[6]; concentration: 6mM,0.903 ± 0.06
same,NP40-soluble protein abundance,[6]; concentration: 8mM,0.89 ± 0.085
same,NP40-soluble protein abundance,[6]; concentration: 10mM,0.901 ± 0.074
same,NP40-soluble protein abundance,[7]; concentration: 0.1mM,1.21 ± 0.29
same,NP40-soluble protein abundance,[7]; concentration: 0.5mM,1.06 ± 0.047
same,NP40-soluble protein abundance,[7]; concentration: 1mM,1.05 ± 0.19
same,NP40-soluble protein abundance,[7]; concentration: 2mM,1.08 ± 0.11

# Quoted at random: 3 records from the list
structure (smiles),measurement,setting,value
Nc1nc2c(ncn2[C@@H]2O[C@H](COP(=O)(O)OP(=O)(O)OP(=O)(O)O)[C@@H](O)[C@H]2O)c(=O)[nH]1 [guanosine triphosphate],NP40-soluble protein abundance,[6]; concentration: 0.1mM,0.999 ± 0.086
same,NP40-soluble protein abundance,[3]; concentration: 4mM,1.15 ± 0.15
same,NP40-soluble protein abundance,[4]; concentration: 6mM,0.884 ± 0.06
